Patent US20220324912A1, “THERAPEUTIC PEPTIDES” (COHBAR, INC., priority 2019, published 2022)
Several values for one entry are separate records, joined by “and”; a condition that tells them apart may be missing. Identical values can stand only once. Part of at least one peptide drawing is inferred or uncertain, most often the ends. Non-standard residues stand in square brackets, D forms with d. Residues, ends and D or L forms follow the SMILES beside them.

Legend:
[1] = test system: 3T3-L1 mouse adipocytes; test: Free Fatty Acid Levels in 3T3-L1 Mouse Adipocytes (Example 12, 10 μM); type: cell-based; details: peptides 10 μM, 20-22 hours then 3 hours with isoproterenol 1 nM
Experimental: The effect of the peptides on fatty acid metabolism can be assessed using an assay of free fatty acid levels in cultured cells such as mouse adipocytes. Peptides were initially prepared as 10 mM stock in DMSO, diluted to 1 mM in H2O, and used at a final concentration of 10 μM (0.1% DMSO). […] After 20-22 hours, 1 nM isoproterenol was added to all wells except untreated controls and test peptides were replenished. Insulin at 100 nM was added to control wells. […] Free fatty acid concentrations in the media were determined using a Free Fatty Acid Assay kit (Zen-Bio) according to the manufacturer's instructions using a Cytation 3 plate reader at 540 nm (BioTek, Winooski, Vt.). Absorbance values were corrected for untreated background and expressed relative to isoproterenol treated cells. Treatment with isoproterenol (1 nM) alone was used as the free fatty acid level stimulatory control. The relative standard deviation of the isoproterenol control was <10%. […] Free fatty acid levels for insulin (100 nM) treatment were <5% of the isoproterenol control value.

[2] = test system: 3T3-L1 adipocytes; test: Free Fatty Acid Levels in 3T3-L1 Adipocytes (Example 4, 25 μM); type: cell-based, mouse; details: peptides 25 μM, 20-22 hours then 3 hours with isoproterenol 1 nM
Experimental: Following 12-15 days' differentiation, test peptides were added to a final concentration of 25 μM and incubated for 20-22 hours in Adipocyte Maintenance Medium. After 20-22 hours, isoproterenol (1 nM) was added to all wells except untreated controls and test peptides were replenished. Cells were incubated for a further 3 hours in Assay Buffer (Zen-Bio). Free fatty acid concentrations in the media were determined using a Free Fatty Acid Assay Kit (Zen-Bio) according to the manufacturer's instructions using a plate reader (540 nm). Absorbance values were corrected for untreated background and expressed relative to isoproterenol treated cells. Treatment with isoproterenol (1 nM) alone was used as the free fatty acid level stimulatory control. The relative standard deviation of the isoproterenol control was <10%. […] Free fatty acid levels for insulin (100 nM) treatment were <5% of the isoproterenol control value.

[3] = test system: Caspase 3/7 in MDA-MB-231 cells; test: Caspase 3/7 Activity in MDA-MB-231 Cells (Caspase-Glo 3/7); type: cell-based, human; details: peptides 10 μM, 18 hours, relative to DMSO control
Experimental: The effect of the peptides on cell death/survival can be assessed using a caspase-3 assay. Peptides were dissolved with DMSO at 10 mM stock. […] Staurosporine (Selleckchem) was dissolved with DMSO at 1 mM stock. Caspase-Glo 3/7 Assay Reagent was purchased from Promega (Madison, Wis.). MDA-MB-231 human breast cancer cell line was purchased from American Type Culture Collection (Manassas, Va.). MDA-MB-231 cells were grown in DMEM Medium supplemented with 10% FBS. 100 μg/ml penicillin and 100 μg/ml streptomycin were added to the culture medium. Cultures were maintained at 37° C. in a humidified atmosphere of 5% CO2 and 95% air. MDA-MB-231 cells were incubated with test peptides in duplicate at 10 μM at 37° C. in a humidified atmosphere of 5% CO2 and 95% air for 18 hours. 25 μl of Caspase-Glo 3/7 Assay Reagent was added to each well and incubated at 37° C., 5% CO2 for 1 hour. Luminescence for each sample well on the plate was measured by Envision 2104 Multilabel Reader (PerkinElmer, Santa Clara, Calif.). Activity was calculated relative to DMSO control.

[4] = test system: C2C12 cells; test: Cellular ROS Levels Induced by TBHP in C2C12 Cells (DCFDA); type: cell-based, mouse; details: peptides 10 μM, 18-20 hours, then TBHP 100 μM 1 hour, relative to TBHP control
Experimental: The protective or synergistic effect of the peptides on cellular levels of reactive oxygen species (ROS) induced by oxidative stress can be assessed using an assay of ROS in cultured cells such as mouse myoblasts exposed to a suitable oxidative stress. Peptides were initially prepared as 10 mM stock in DMSO, diluted to 1 mM in H2O, and added at a final concentration of 10 μM (0.1% DMSO). […] TBHP was used at final concentration of 100 μM. Sulforaphane at final concentration of 10 µM was used as a protective control against TBHP induced ROS production. […] C2C12 cells were grown in DMEM supplemented with 20% FBS with 100 IU/ml penicillin and 100 μg/ml streptomycin. […] C2C12 cells were seeded at 7,500 cells per well on 96-well plates. […] After 18-20 hours of incubation the cells were loaded with DCFDA for 45 min. TBHP at 100 μM was then added to the appropriate wells for 1 hour. ROS activity was determined using a DCFDA Cellular ROS Detection Assay kit (Abcam, Cambridge, Mass.) according to the manufacturer's instructions. Fluorescence in each sample well on the plate was measured using a Cytation 3 plate reader at Ex/Em=485/535 nm (BioTek, Winooski, Vt.). Activity was calculated relative to TBHP control. The relative standard deviation of the sulforaphane control was <20%. The ROS level produced by the sulforaphane control in the presence of TBHP was 52% of the TBHP control.

[5] = test system: DIO mice; test: Metabolic parameters in DIO mice, twice daily intraperitoneal, 10 days (Example 16); type: in vivo, mouse; details: 5 mg/kg, male DIO mice
Experimental: Male C57BL/6 mice were maintained on a high fat diet for 18 weeks to develop diet induced obesity. Animals were randomized to treatment groups based on blood glucose levels and body weight. The peptides of the invention were administered to groups of male DIO mice twice daily by intraperitoneal injection at a dose of 5 mg/kg/dose for 10 days (N=8 animals per treatment group). An additional group of male DIO mice (n=8) received vehicle (water) alone administered twice daily by intraperitoneal injection. Body weight, blood glucose levels and food intake were monitored. Body mass distribution (fat vs lean) was determined by quantitative whole body NMR prior to dosing and at the end of dosing.

[6] = test system: C2C12 cells; test: ATP Levels in Cultured C2C12 Cells (CellTiter-Glo); type: cell-based, mouse; details: peptides 10 μM, 3 days with readdition every 24 hours, relative to 0.1% DMSO control
Experimental: The effect of the peptides on cellular metabolism can be assessed using an assay of ATP levels in cultured cells such as mouse myoblast cells. Peptides were initially prepared as 10 mM stock in DMSO, diluted to 1 mM in H2O, and used at a final concentration of 10 μM (0.1% DMSO). […] Lovastatin was prepared as 10 mM stock in 70% Ethanol and used at final concentration of 10 µM containing 0.1% DMSO. CellTiter-Glo® Assay kit was purchased from Promega (Madison, Wis.). […] C2C12 cells were grown in DMEM medium supplemented with 20% FBS with 100 IU/ml penicillin and 100 μg/ml streptomycin. […] C2C12 cells were seeded at 800 cells per well on 96-well plates. […] ATP levels were determined using a CellTiter-Glo Assay kit according to the manufacturer's instructions. Luminescence for each sample well on the plate was measured using a Cytation 3 plate reader (BioTek, Winooski, Vt.). Activity was calculated relative to 0.1% DMSO treated control. The relative standard deviation of the result for the 0.1% DMSO treated control was <5%. […] ATP levels for treatment with lovastatin (10 μM) were <50% of the 0.1% DMSO treated control value.

[7] = test system: Caspase 3/7 in C2C12 cells; test: Caspase 3/7 Activity in C2C12 Cells; type: cell-based, mouse; details: peptides 10 μM, 24 hours, relative to 0.1% DMSO control
Experimental: The effect of the peptides on cell death/survival can be assessed using a caspase-3/7 assay in cultured cells such as mouse myoblast cells. Peptides were initially prepared as 10 mM stock in DMSO, diluted to 1 mM in H2O, and used at a final concentration of 10 μM (0.1% DMSO). […] Staurosporine (Abcam, Cambridge, Mass.) was dissolved at 10 mM in DMSO as a stock solution. Caspase-Glo 3/7 Assay Reagent was purchased from Promega (Madison, Wis.). C2C12 cell line was purchased from American Type Culture Collection (Manassas, Va.). C2C12 cells were grown in DMEM supplemented with 20% FBS with 100 IU/ml penicillin and 100 μg/ml streptomycin. Cultures were maintained at 37° C. in a humidified atmosphere of 5% CO2/95% air. C2C12 cells were seeded at 4,000 cells per well on 96-well plates. The next day cells were incubated with test peptides at 10 μM or staurosporine at concentrations between 100 nM and 5 nM using a final concentration of 0.1% DMSO and maintained at 37° C. in a humidified atmosphere of 5% CO2/95% air for 24 hours. Caspase 3/7 activity was determined using a Caspase-Glo 3/7 Assay kit according to the manufacturer's instructions. Luminescence for each sample well on the plate was measured using a Cytation 3 plate reader (BioTek, Winooski, Vt.). Activity was calculated relative to 0.1% DMSO control.

Compound | Free fatty acid levels, Percent of Isoproterenol Control Activity [1] | Free fatty acid levels, Percent of Control Value (percent isoproterenol control) [2] [%] | Caspase 3/7 activity, Percent of Control Activity [3] [%] | Cellular ROS levels induced by TBHP, Percent of Control [4] [%] | Difference from Vehicle Control: Decrease from Baseline in Blood Glucose [5] [mg/dL] | Difference from Vehicle Control: Decrease from Baseline in Body Weight [5] [%] | Difference from Vehicle Control: Decrease from Baseline in Fat Mass [5] [g] | ATP levels, Percent of Control Activity [6] [%] | Caspase 3/7 activity, Percent of Control Activity [7] [%]
CC[C@H](C)[C@H](NC(=O)[C@H](C)NC(=O)[C@H](CO)NC(=O)CNC(=O)[C@@H]1CCCN1C(=O)[C@H](CC(C)C)NC(=O)[C@@H](N)CCCNC(=N)N)C(=O)N[C@@H](CC(C)C)C(=O)N[C@H](C(=O)N[C@@H](CC(N)=O)C(=O)N1CCC[C@H]1C(=O)N[C@H](C(=O)N[C@@H](CC(C)C)C(=O)NCC(=O)N[C@@H](Cc1c[nH]c2ccccc12)C(=O)N[C@H](C(=O)N[C@@H](Cc1c[nH]c2ccccc12)C(=O)N[C@H](C(=O)O)C(C)C)C(C)C)C(C)C)[C@@H](C)O [compound 8] (H-RLPGSAILTNPVLGWVWV-OH) | 81.9% and 57.0% | 58 |  |  |  |  |  |  | 
CC[C@H](C)[C@H](NC(=O)[C@H](C)NC(=O)[C@H](CO)NC(=O)CNC(=O)[C@@H]1CCCN1C(=O)[C@H](CC(C)C)NC(=O)[C@H](CCCNC(=N)N)NC(=O)[C@@H](N)CCSC)C(=O)N[C@@H](CC(C)C)C(=O)N[C@H](C(=O)N[C@@H](CC(N)=O)C(=O)N1CCC[C@H]1C(=O)N[C@H](C(=O)N[C@@H](CC(C)C)C(=O)NCC(=O)N[C@@H](Cc1c[nH]c2ccccc12)C(=O)N[C@H](C(=O)N[C@@H](Cc1c[nH]c2ccccc12)C(=O)N[C@H](C(=O)O)C(C)C)C(C)C)C(C)C)[C@@H](C)O [compound 7] (H-MRLPGSAILTNPVLGWVWV-OH) | 72.2% | 62 | 72 | 99.3 |  |  |  |  | 
CC[C@H](C)[C@H](NC(=O)[C@@H](C)NC(=O)[C@H](CO)NC(=O)CNC(=O)[C@@H]1CCCN1C(=O)[C@H](CC(C)C)NC(=O)[C@@H](N)CCCNC(=N)N)C(=O)N[C@@H](CC(C)C)C(=O)N[C@H](C(=O)N[C@@H](CC(N)=O)C(=O)N1CCC[C@H]1C(=O)N[C@H](C(=O)N[C@@H](CC(C)C)C(=O)NCC(=O)N[C@@H](Cc1c[nH]c2ccccc12)C(=O)N[C@H](C(=O)N[C@@H](Cc1c[nH]c2ccccc12)C(=O)N[C@H](C(=O)O)C(C)C)C(C)C)C(C)C)[C@@H](C)O [compound 9] (H-RLPGS[dA]ILTNPVLGWVWV-OH) |  | 26 |  | 95.2 | -2.50 | −2.40 | -0.97 |  | 
CC[C@H](C)[C@H](NC(=O)[C@@H](C)NC(=O)[C@H](CO)NC(=O)CNC(=O)[C@@H]1CCCN1C(=O)[C@H](CC(C)C)NC(=O)[C@@H](N)CCCNC(=N)N)C(=O)N[C@@H](CC(C)C)C(=O)N[C@H](C(=O)N[C@@H](CC(N)=O)C(=O)N1CCC[C@H]1C(=O)N[C@H](C(=O)N[C@@H](CC(C)C)C(=O)NCC(=O)N[C@@H](Cc1c[nH]c2ccccc12)C(=O)N[C@H](C(=O)O)C(C)C)C(C)C)[C@@H](C)O [compound 10] (H-RLPGS[dA]ILTNPVLGWV-OH) | 71.3% and 71.5% | 46 |  | 98.1 |  |  |  | 108.3 | 98.1
